From PMC4657039 (Assay and Drug Development Technologies, 2014)

By UniProt entry, the sequences of proteins in these tests, tags left out. Where a name states a change or a piece, a line headed by the entry shows the natural chain unless it says otherwise.
UniProt Q13936, whole entry: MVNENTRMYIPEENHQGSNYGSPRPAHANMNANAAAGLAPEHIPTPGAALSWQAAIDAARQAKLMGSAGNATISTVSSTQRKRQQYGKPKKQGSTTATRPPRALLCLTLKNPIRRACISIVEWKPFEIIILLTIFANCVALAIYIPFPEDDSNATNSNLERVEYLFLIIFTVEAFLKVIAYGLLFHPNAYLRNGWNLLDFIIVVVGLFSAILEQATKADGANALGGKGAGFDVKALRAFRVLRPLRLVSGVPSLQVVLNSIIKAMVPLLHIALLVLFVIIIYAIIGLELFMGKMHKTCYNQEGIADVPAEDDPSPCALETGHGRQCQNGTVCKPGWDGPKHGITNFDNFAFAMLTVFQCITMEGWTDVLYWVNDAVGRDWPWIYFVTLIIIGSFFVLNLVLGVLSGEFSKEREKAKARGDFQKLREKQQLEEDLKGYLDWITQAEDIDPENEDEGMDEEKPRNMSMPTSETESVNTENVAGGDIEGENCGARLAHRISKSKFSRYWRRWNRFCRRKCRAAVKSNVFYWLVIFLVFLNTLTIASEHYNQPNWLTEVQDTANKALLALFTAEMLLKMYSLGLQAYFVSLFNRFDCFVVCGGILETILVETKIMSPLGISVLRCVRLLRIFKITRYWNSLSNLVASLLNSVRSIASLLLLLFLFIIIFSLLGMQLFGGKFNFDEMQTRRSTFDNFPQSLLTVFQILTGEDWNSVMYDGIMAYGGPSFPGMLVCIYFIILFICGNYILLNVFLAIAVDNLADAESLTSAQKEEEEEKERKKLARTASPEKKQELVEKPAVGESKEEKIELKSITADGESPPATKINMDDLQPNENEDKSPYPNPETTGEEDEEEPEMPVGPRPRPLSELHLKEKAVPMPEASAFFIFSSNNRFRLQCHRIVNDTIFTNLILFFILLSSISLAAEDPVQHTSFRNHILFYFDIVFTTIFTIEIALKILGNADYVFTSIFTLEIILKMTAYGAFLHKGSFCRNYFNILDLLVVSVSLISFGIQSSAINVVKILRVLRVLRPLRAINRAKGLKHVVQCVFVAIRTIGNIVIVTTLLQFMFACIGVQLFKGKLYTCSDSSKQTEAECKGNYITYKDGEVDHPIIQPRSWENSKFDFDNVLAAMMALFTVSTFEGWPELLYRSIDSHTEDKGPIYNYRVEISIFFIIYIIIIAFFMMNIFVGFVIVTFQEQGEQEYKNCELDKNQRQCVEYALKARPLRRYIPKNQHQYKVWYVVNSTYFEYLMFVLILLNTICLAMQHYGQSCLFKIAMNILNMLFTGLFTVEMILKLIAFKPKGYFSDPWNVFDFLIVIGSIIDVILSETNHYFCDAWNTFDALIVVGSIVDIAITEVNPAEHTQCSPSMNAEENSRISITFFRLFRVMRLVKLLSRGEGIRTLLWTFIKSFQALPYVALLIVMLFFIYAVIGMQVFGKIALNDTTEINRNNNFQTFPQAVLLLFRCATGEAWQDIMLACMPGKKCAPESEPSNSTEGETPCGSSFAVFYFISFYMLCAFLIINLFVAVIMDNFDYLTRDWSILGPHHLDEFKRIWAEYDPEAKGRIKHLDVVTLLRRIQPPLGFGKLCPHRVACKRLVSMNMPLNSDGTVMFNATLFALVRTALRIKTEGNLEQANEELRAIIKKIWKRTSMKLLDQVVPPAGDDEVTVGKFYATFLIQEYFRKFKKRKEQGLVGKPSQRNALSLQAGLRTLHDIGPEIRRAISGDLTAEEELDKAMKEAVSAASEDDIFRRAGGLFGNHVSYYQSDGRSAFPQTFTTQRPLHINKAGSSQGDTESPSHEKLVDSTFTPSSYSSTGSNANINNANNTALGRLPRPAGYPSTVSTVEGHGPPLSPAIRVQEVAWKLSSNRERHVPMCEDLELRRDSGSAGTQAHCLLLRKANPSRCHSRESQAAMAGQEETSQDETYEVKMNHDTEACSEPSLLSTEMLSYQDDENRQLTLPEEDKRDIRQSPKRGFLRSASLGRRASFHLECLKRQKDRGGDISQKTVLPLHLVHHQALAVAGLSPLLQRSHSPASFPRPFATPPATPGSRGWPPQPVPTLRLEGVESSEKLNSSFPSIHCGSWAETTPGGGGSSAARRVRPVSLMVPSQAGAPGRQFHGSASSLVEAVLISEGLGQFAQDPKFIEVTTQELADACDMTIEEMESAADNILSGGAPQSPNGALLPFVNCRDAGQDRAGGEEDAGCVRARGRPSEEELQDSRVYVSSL

Key:
human Cav1.2/β2/α2δ1 [1] = biological target: T1, human Cav1.2/β2/α2δ1 (Homo sapiens, UniProt Q13936); settings: two-test pulse protocol
human Cav1.2/β2/α2δ1 [2] = biological target: T1, human Cav1.2/β2/α2δ1; settings: 1 μM; test pulse 10 mV, holding −90 mV, 60-s CP to −50 mV

Q: How did the “use dependence of Cav1.2 inhibition” value (human Cav1.2/β2/α2δ1 [1]) turn out when `COC(=O)C1=C(C)NC(C)=C(C(=O)OC)C1c1ccccc1[N+](=O)[O-]` [Nifedipine, nifedipine] was run?
A: The value was “no use dependence”.

Q: And the “effect on Cav1.2 currents” value (human Cav1.2/β2/α2δ1 [2])?
A: The value was “completely blocked”.
